We go through two compounds from US11892401B2, “Boronic acid appended naphthyl-pyridinium fluorescent saccharide sensors for early detection of gastrointestinal diseases” (The Board of Trustees of the Leland Stanford Junior …, priority 2018, dated 2024).

This data set in a line: Limits of detection and quantification of the fluorescence assay. Particulars: for LOD (limit of detection): analyte concentration 3 standard deviations above mean baseline fluorescence; for LOQ (limit of quantification): analyte concentration 10 standard deviations above mean baseline fluorescence. Here is the method:
Fluorescence intensity was monitored with increasing sugar concentration, e.g., 0-10 mM for receptor compounds 3 (250 μM) and 4 (250 μM) in 0.1 M sodium phosphate buffer, pH 7.4. Stock solutions of each boronic acid receptor compound (3, and 4) were initially prepared in DMS (1 mg/mL) and then diluted in sodium phosphate buffer to obtain the desired initial 2-fold concentration. Fluorescence measurements were conducted in a 96-well plate (Corning #3694) and to each well 30 μL of each receptor compound and sugar in buffer media was added in triplicate. Blank wells received 60 μL of buffer only. Baseline (Fo) well received receptor and buffer media. Measurements were performed using a Tecan Infinite M1000 instrument, a plate reader (gain 100, flashes 30, z-position 1.8 cm) Plates were shaken for 30 seconds (2 mm orbital amplitude) prior to reading. After blank subtraction, fluorescence intensity relative to initial baseline fluorescence was plotted with respect to increasing sugar concentration (FIG. 9, panels A and B). FIG. 9, panels A and B show normalized fluorescence response of compounds 3 and 4 in the presence of lactulose, mannitol, glucose, galactose and fructose in 0.1 M sodium phosphate buffer, pH 7.4 Excitation wavelength λex=340 nm and emission λem=435 nm was used for each receptor compound.
The limits of detection (LOD) and quantification (LOQ) were defined as the analyte concentration in which the fluorescence intensity in the assay was 3 and 10 standard deviations above the mean baseline fluorescence.

Regarding `OB(O)c1ccccc1C[n+]1ccc(-c2ccc3cc(-c4cc[n+](Cc5ccccc5B(O)O)cc4)ccc3c2)cc1` [Compound 3], the “LOD (limit of detection)” value is 100 µM and the “LOQ (limit of quantification)” value came out at 200 µM.

In the case of `OB(O)c1ccccc1C[n+]1ccc(-c2ccc3ccc(-c4cc[n+](Cc5ccccc5B(O)O)cc4)cc3c2)cc1` [Compound 4], the “LOD (limit of detection)” value worked out at 70 µM and the “LOQ (limit of quantification)” value came out at 190 µM.
